Reference: patent US20020164697A1
Results are given in words; binding and its absence hold for the method and conditions named. Binding seen in cells or lysates may run through a third protein. Some entries that bind do so weakly or less than the wild type.

By UniProt entry, the sequences of proteins in these tests, tags left out. Where a name states a change or a piece, a line headed by the entry shows the natural chain unless it says otherwise. Residues count along the entry.
UniProt P27986, residues 2-724: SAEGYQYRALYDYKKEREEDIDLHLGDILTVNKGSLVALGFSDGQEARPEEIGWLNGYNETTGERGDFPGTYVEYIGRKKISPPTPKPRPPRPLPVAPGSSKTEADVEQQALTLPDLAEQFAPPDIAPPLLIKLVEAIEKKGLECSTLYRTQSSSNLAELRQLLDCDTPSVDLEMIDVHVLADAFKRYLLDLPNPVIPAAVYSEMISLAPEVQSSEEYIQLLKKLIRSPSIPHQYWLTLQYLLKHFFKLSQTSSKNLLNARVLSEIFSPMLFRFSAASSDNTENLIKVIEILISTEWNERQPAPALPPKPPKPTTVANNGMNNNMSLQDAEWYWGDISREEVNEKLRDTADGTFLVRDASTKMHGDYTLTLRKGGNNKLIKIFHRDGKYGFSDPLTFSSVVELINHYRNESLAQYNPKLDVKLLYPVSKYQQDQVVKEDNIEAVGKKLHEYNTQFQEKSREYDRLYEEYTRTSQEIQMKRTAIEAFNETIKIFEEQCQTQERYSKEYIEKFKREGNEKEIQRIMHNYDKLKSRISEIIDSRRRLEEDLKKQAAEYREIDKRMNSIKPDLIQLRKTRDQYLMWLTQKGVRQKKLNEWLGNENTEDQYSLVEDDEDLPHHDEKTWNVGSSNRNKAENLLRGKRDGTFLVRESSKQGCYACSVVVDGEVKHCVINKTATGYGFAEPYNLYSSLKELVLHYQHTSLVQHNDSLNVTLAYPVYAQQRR
UniProt P10747: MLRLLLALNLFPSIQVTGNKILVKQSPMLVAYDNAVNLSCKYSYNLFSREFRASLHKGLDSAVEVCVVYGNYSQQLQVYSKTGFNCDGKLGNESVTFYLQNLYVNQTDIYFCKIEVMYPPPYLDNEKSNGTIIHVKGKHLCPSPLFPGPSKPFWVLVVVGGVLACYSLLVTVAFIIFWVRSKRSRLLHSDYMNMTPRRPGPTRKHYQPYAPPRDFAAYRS

Biological target: p85 subunit of phosphatidylinositol 3-kinase (PI-3K) (UniProt P27986)
Experiment: co-immunoprecipitation from Jurkat cells, anti-p85 immunoblot

binding: binds
Substance: CD28 on Jurkat cells (hCD28) (from UniProt P10747 19-220) (receptor)
